No constants are given. Whether binding was seen depends on the method and setting. In cells and extracts the contact can be indirect. Some binding calls cover weakened binding; strength is not graded here. Sequences can lack the tags named with a protein.
Key:
Experiment in all cases: co-IP; N2a cells co-transfected 24 h with Gαo-GFP constructs and His6-RGS19 (1:1) or mRFP-Gβ1/mRFP-Gγ3 (1:1:1); lysate in GST-lysis buffer (20 mM Tris-HCl pH 8.0, 1% Triton X-100, 10% glycerol in PBS); Gαo-GFP precipitated with GST-tagged GFP nanobody and glutathione Sepharose 4B overnight at 4 °C; Western blot against GFP, mRFP, His6; blots quantified, normalised to the precipitated Gαo, 5 experiments
Gαo-GFP Q52R (human) = Gαo-GFP Q52R (human) (UniProt P09471)
[1] = molecular target: Gαo-GFP wild-type (human) (UniProt P09471)
Gαo-GFP Q52P (human) = Gαo-GFP Q52P (human) (UniProt P09471)

Chains of the proteins cited; added tags and fusions are not shown. Lines headed by an entry give the natural chain unless they say otherwise; changes in a name come on top.
UniProt P09471: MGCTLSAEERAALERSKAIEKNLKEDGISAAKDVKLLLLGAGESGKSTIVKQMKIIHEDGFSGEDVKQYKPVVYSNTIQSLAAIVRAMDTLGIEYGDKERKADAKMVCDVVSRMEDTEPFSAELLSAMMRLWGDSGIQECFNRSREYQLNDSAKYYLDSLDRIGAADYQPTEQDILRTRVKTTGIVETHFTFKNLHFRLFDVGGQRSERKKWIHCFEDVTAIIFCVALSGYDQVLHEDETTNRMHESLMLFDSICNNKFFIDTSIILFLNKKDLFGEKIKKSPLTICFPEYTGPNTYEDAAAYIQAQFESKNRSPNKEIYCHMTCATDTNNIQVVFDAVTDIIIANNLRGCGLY

- binding (Gαo-GFP Q52R (human)): binds weakly
- binding [1]: binds
- binding (Gαo-GFP Q52P (human)): binds weakly
B1: His6-RGS19 (protein, UniProt P49795 1-217)
chain: MPTPHEAEKQITGPEEADRPPSMSSHDTASPAAPSRNPCCLCWCCCCSCSWNQERRRAWQASRESKLQPLPSCEVCATPSPEEVQSWAQSFDKLMHSPAGRSVFRAFLRTEYSEENMLFWLACEELKAEANQHVVDEKARLIYEDYVSILSPKEVSLDSRVREGINKKMQEPSAHTFDDAQLQIYTLMHRDSYPRFLSSPTYRALLLQGPSQSSSEA
